# Some of the results follow.
# Columns and labels:
# Experiment in all cases: glycan array binding signal (z-score within array); higher = stronger binding
# Conditions in all cases: glycan notation: IUPAC condensed, linker removed
# Glc(b1-6)Glc = target: Glc(b1-6)Glc
# Procedure, shortened: (§1)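 The binding signal is a Z-score computed within each array. Data were drawn from 3228 arrays in the Consortium for Functional Glycomics database, restricted to those with a known protein sequence. Scores were averaged over arrays of the same protein sequence at different concentrations or buffers, and over linkers, and negative values can be taken as non-binding.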
# GlcA(b1-3)Gal = target: GlcA(b1-3)Gal
# Procedure, shortened: as §1
# GlcA(b1-3)GlcNAc = target: GlcA(b1-3)GlcNAc
# Procedure, shortened: as §1
# GlcA(b1-6)Gal = target: GlcA(b1-6)Gal
# Procedure, shortened: as §1
# [1] = target: GlcA3S(b1-3)Gal(b1-4)GlcNAc(b1-2)Man
# Procedure, shortened: as §1
# [2] = target: GlcA3S(b1-3)Gal(b1-4)GlcNAc(b1-3)Gal(b1-4)Glc
# Procedure, shortened: as §1
# [3] = target: GlcNAc(a1-3)Gal(b1-4)GlcNAc
# Procedure, shortened: as §1
# [4] = target: GlcNAc(a1-4)Gal(b1-3)GlcNAc
# Procedure, shortened: as §1
# [5] = target: GlcNAc(a1-4)Gal(b1-4)GalNAc
# Procedure, shortened: as §1
# [6] = target: GlcNAc(a1-4)Gal(b1-4)GlcNAc
# Procedure, shortened: as §1
# [7] = target: GlcNAc(a1-4)Gal(b1-4)GlcNAc(b1-3)Gal(b1-4)Glc
# Procedure, shortened: as §1
# [8] = target: GlcNAc(a1-4)Gal(b1-4)GlcNAc(b1-3)Gal(b1-4)GlcNAc
# Procedure, shortened: as §1
# [9] = target: GlcNAc(a1-4)Gal(b1-4)GlcNAc(b1-3)Gal(b1-4)GlcNAc(b1-3)Gal(b1-4)GlcNAc
# Procedure, shortened: as §1
# [10] = target: GlcNAc(a1-4)Gal(b1-4)GlcNAc(b1-3)Gal(b1-4)[Fuc(a1-3)]GlcNAc(b1-3)Gal(b1-4)[Fuc(a1-3)]GlcNAc
# Procedure, shortened: as §1
# [11] = target: GlcNAc(a1-6)Gal(b1-4)GlcNAc
# Procedure, shortened: as §1
# [12] = target: GlcNAc(b1-2)Gal(b1-3)GalNAc
# Procedure, shortened: as §1
# [13] = target: GlcNAc(b1-2)Man(a1-3)[GlcNAc(b1-2)Man(a1-6)]Man(b1-4)GlcNAc(b1-4)GlcNAc
# Procedure, shortened: as §1
# [14] = target: GlcNAc(b1-2)Man(a1-3)[GlcNAc(b1-2)Man(a1-6)]Man(b1-4)GlcNAc(b1-4)[Fuc(a1-6)]GlcNAc
# Procedure, shortened: as §1
# [15] = target: GlcNAc(b1-2)Man(a1-3)[GlcNAc(b1-4)][GlcNAc(b1-2)Man(a1-6)]Man(b1-4)GlcNAc(b1-4)GlcNAc
# Procedure, shortened: as §1
# [16] = target: GlcNAc(b1-2)Man(a1-3)[GlcNAc(b1-4)][GlcNAc(b1-2)Man(a1-6)]Man(b1-4)GlcNAc(b1-4)[Fuc(a1-6)]GlcNAc
# Procedure, shortened: as §1
# [17] = target: GlcNAc(b1-2)[GlcNAc(b1-4)]Man(a1-3)[GlcNAc(b1-2)Man(a1-6)]Man(b1-4)GlcNAc(b1-4)GlcNAc
# Procedure, shortened: as §1
# [18] = target: GlcNAc(b1-2)[GlcNAc(b1-4)]Man(a1-3)[GlcNAc(b1-4)][GlcNAc(b1-2)Man(a1-6)]Man(b1-4)GlcNAc(b1-4)GlcNAc
# Procedure, shortened: as §1
# [19] = target: GlcNAc(b1-2)[GlcNAc(b1-4)]Man(a1-3)[GlcNAc(b1-4)][GlcNAc(b1-2)[GlcNAc(b1-6)]Man(a1-6)]Man(b1-4)GlcNAc(b1-4)GlcNAc
# Procedure, shortened: as §1
# [20] = target: GlcNAc(b1-2)[GlcNAc(b1-4)]Man(a1-3)[GlcNAc(b1-4)][GlcNAc(b1-2)[GlcNAc(b1-6)]Man(a1-6)]Man(b1-4)GlcNAc(b1-4)[Fuc(a1-6)]GlcNAc
# Procedure, shortened: as §1
# [21] = target: GlcNAc(b1-2)[GlcNAc(b1-6)]Man(a1-6)[GlcNAc(b1-2)Man(a1-3)]Man(b1-4)GlcNAc(b1-4)GlcNAc
# Procedure, shortened: as §1
# [22] = target: GlcNAc(b1-2)[GlcNAc(b1-6)]Man(a1-6)[GlcNAc(b1-2)Man(a1-3)]Man(b1-4)GlcNAc(b1-4)[Fuc(a1-6)]GlcNAc
# Procedure, shortened: as §1
# [23] = target: GlcNAc(b1-2)[GlcNAc(b1-6)]Man(a1-6)[GlcNAc(b1-4)][GlcNAc(b1-2)Man(a1-3)]Man(b1-4)GlcNAc(b1-4)GlcNAc
# Procedure, shortened: as §1
# GlcNAc(b1-3)Fuc = target: GlcNAc(b1-3)Fuc
# Procedure, shortened: as §1
# GlcNAc(b1-3)Gal = target: GlcNAc(b1-3)Gal
# Procedure, shortened: as §1
# [24] = target: GlcNAc(b1-3)Gal(b1-3)GalNAc
# Procedure, shortened: as §1
# GlcNAc(b1-3)Gal(b1-4)Glc = target: GlcNAc(b1-3)Gal(b1-4)Glc
# Procedure, shortened: as §1
# [25] = target: GlcNAc(b1-3)Gal(b1-4)GlcNAc
# Procedure, shortened: as §1
# [26] = target: GlcNAc(b1-3)Gal(b1-4)GlcNAc(b1-2)Man(a1-3)[GlcNAc(b1-3)Gal(b1-4)GlcNAc(b1-2)Man(a1-6)]Man(b1-4)GlcNAc(b1-4)GlcNAc
# Procedure, shortened: as §1
# [27] = target: GlcNAc(b1-3)Gal(b1-4)GlcNAc(b1-2)Man(a1-3)[GlcNAc(b1-3)Gal(b1-4)GlcNAc(b1-2)Man(a1-6)]Man(b1-4)GlcNAc(b1-4)[Fuc(a1-6)]GlcNAc
# Procedure, shortened: as §1
# [28] = target: GlcNAc(b1-3)Gal(b1-4)GlcNAc(b1-2)[GlcNAc(b1-3)Gal(b1-4)GlcNAc(b1-6)]Man(a1-6)[GlcNAc(b1-3)Gal(b1-4)GlcNAc(b1-2)Man(a1-3)]Man(b1-4)GlcNAc(b1-4)GlcNAc
# Procedure, shortened: as §1
# [29] = target: GlcNAc(b1-3)Gal(b1-4)GlcNAc(b1-3)Gal(b1-4)GlcNAc
# Procedure, shortened: as §1
# [30] = target: GlcNAc(b1-3)Gal(b1-4)GlcNAc(b1-3)Gal(b1-4)GlcNAc(b1-2)Man(a1-3)[GlcNAc(b1-3)Gal(b1-4)GlcNAc(b1-3)Gal(b1-4)GlcNAc(b1-2)Man(a1-6)]Man(b1-4)GlcNAc(b1-4)GlcNAc
# Procedure, shortened: as §1
# [31] = target: GlcNAc(b1-3)Gal(b1-4)GlcNAc(b1-3)Gal(b1-4)GlcNAc(b1-2)Man(a1-3)[GlcNAc(b1-3)Gal(b1-4)GlcNAc(b1-3)Gal(b1-4)GlcNAc(b1-2)Man(a1-6)]Man(b1-4)GlcNAc(b1-4)[Fuc(a1-6)]GlcNAc
# Procedure, shortened: as §1
# [32] = target: GlcNAc(b1-3)Gal(b1-4)GlcNAc(b1-3)Gal(b1-4)GlcNAc(b1-2)[GlcNAc(b1-3)Gal(b1-4)GlcNAc(b1-3)Gal(b1-4)GlcNAc(b1-6)]Man(a1-6)[GlcNAc(b1-3)Gal(b1-4)GlcNAc(b1-3)Gal(b1-4)GlcNAc(b1-2)Man(a1-3)]Man(b1-4)GlcNAc(b1-4)[Fuc(a1-6)]GlcNAc
# Procedure, shortened: as §1
# [33] = target: GlcNAc(b1-3)Gal(b1-4)GlcNAc(b1-3)Gal(b1-4)GlcNAc(b1-3)Gal(b1-4)GlcNAc(b1-2)Man(a1-3)[GlcNAc(b1-3)Gal(b1-4)GlcNAc(b1-3)Gal(b1-4)GlcNAc(b1-3)Gal(b1-4)GlcNAc(b1-2)Man(a1-6)]Man(b1-4)GlcNAc(b1-4)GlcNAc
# Procedure, shortened: as §1
# [34] = target: GlcNAc(b1-3)Gal(b1-4)GlcNAc(b1-3)Gal(b1-4)GlcNAc(b1-3)Gal(b1-4)GlcNAc(b1-2)Man(a1-3)[GlcNAc(b1-3)Gal(b1-4)GlcNAc(b1-3)Gal(b1-4)GlcNAc(b1-3)Gal(b1-4)GlcNAc(b1-2)Man(a1-6)]Man(b1-4)GlcNAc(b1-4)[Fuc(a1-6)]GlcNAc
# Procedure, shortened: as §1
# [35] = target: GlcNAc(b1-3)Gal(b1-4)GlcNAc(b1-3)Gal(b1-4)GlcNAc(b1-3)Gal(b1-4)GlcNAc(b1-2)[GlcNAc(b1-3)Gal(b1-4)GlcNAc(b1-3)Gal(b1-4)GlcNAc(b1-3)Gal(b1-4)GlcNAc(b1-6)]Man(a1-6)[GlcNAc(b1-3)Gal(b1-4)GlcNAc(b1-3)Gal(b1-4)GlcNAc(b1-3)Gal(b1-4)GlcNAc(b1-2)Man(a1-3)]Man(b1-4)GlcNAc(b1-4)[Fuc(a1-6)]GlcNAc
# Procedure, shortened: as §1
# [36] = target: GlcNAc(b1-3)Gal(b1-4)GlcNAc(b1-3)Gal(b1-4)GlcNAc(b1-3)Gal(b1-4)GlcNAc(b1-3)Gal(b1-4)GlcNAc(b1-2)Man(a1-3)[GlcNAc(b1-3)Gal(b1-4)GlcNAc(b1-3)Gal(b1-4)GlcNAc(b1-3)Gal(b1-4)GlcNAc(b1-3)Gal(b1-4)GlcNAc(b1-2)Man(a1-6)]Man(b1-4)GlcNAc(b1-4)GlcNAc
# Procedure, shortened: as §1
# [37] = target: GlcNAc(b1-3)Gal(b1-4)GlcNAc(b1-3)Gal(b1-4)GlcNAc(b1-3)Gal(b1-4)GlcNAc(b1-3)Gal(b1-4)GlcNAc(b1-2)Man(a1-3)[GlcNAc(b1-3)Gal(b1-4)GlcNAc(b1-3)Gal(b1-4)GlcNAc(b1-3)Gal(b1-4)GlcNAc(b1-3)Gal(b1-4)GlcNAc(b1-2)Man(a1-6)]Man(b1-4)GlcNAc(b1-4)[Fuc(a1-6)]GlcNAc
# Procedure, shortened: as §1
# [38] = target: GlcNAc(b1-3)Gal(b1-4)GlcNAc(b1-3)Gal(b1-4)GlcNAc(b1-3)Gal(b1-4)GlcNAc(b1-3)Gal(b1-4)GlcNAc(b1-2)[GlcNAc(b1-3)Gal(b1-4)GlcNAc(b1-3)Gal(b1-4)GlcNAc(b1-3)Gal(b1-4)GlcNAc(b1-3)Gal(b1-4)GlcNAc(b1-6)]Man(a1-6)[GlcNAc(b1-3)Gal(b1-4)GlcNAc(b1-3)Gal(b1-4)GlcNAc(b1-3)Gal(b1-4)GlcNAc(b1-3)Gal(b1-4)GlcNAc(b1-2)Man(a1-3)]Man(b1-4)GlcNAc(b1-4)[Fuc(a1-6)]GlcNAc
# Procedure, shortened: as §1
binder,measurement,setting,value
"Tp0751, 83732 (protein) MSYYHHHHHHLESTSLYKKAGFQHGHVPPRRIPPHDTFGALPTAALPSNARDTAAHPSDTADNTSGSSTTTDPRSHGNAPPAPVGGAAQTHTQPPVQTAMRIALWNRATHGEQGALQHLLAGLWIQTEISPNSGDIHPLLFFDREHAEITFSRASVQEIFLVDSAHTHRKTVSFLTRNTAISSIRRRLEVTFESHEVIHVRAVEDVARLKIGSTSMWDGQYTRYHAGPASAPSP",glycan array binding signal (z-score),Glc(b1-6)Glc,0.069
same,glycan array binding signal (z-score),GlcA(b1-3)Gal,0.793
same,glycan array binding signal (z-score),GlcA(b1-3)GlcNAc,0.084
same,glycan array binding signal (z-score),GlcA(b1-6)Gal,-0.172
same,glycan array binding signal (z-score),[1],-0.086
same,glycan array binding signal (z-score),[2],-0.3
same,glycan array binding signal (z-score),[3],-0.537
same,glycan array binding signal (z-score),[4],-0.149
same,glycan array binding signal (z-score),[5],-0.219
same,glycan array binding signal (z-score),[6],0.021
same,glycan array binding signal (z-score),[7],-0.55
same,glycan array binding signal (z-score),[8],-0.145
same,glycan array binding signal (z-score),[9],-0.214
same,glycan array binding signal (z-score),[10],1.63
same,glycan array binding signal (z-score),[11],0.248
same,glycan array binding signal (z-score),[12],-0.378
same,glycan array binding signal (z-score),[13],0.716
same,glycan array binding signal (z-score),[14],0.127
same,glycan array binding signal (z-score),[15],-0.545
same,glycan array binding signal (z-score),[16],-0.665
same,glycan array binding signal (z-score),[17],0.091
same,glycan array binding signal (z-score),[18],-0.351
same,glycan array binding signal (z-score),[19],-0.179
same,glycan array binding signal (z-score),[20],-0.299
same,glycan array binding signal (z-score),[21],-0.073
same,glycan array binding signal (z-score),[22],0.781
same,glycan array binding signal (z-score),[23],-0.584
same,glycan array binding signal (z-score),GlcNAc(b1-3)Fuc,-0.135
same,glycan array binding signal (z-score),GlcNAc(b1-3)Gal,-0.494
same,glycan array binding signal (z-score),[24],-0.282
same,glycan array binding signal (z-score),GlcNAc(b1-3)Gal(b1-4)Glc,-0.663
same,glycan array binding signal (z-score),[25],-0.39
same,glycan array binding signal (z-score),[26],-0.228
same,glycan array binding signal (z-score),[27],-0.382
same,glycan array binding signal (z-score),[28],0.604
same,glycan array binding signal (z-score),[29],0.201
same,glycan array binding signal (z-score),[30],0.73
same,glycan array binding signal (z-score),[31],-0.349
same,glycan array binding signal (z-score),[32],-0.371
same,glycan array binding signal (z-score),[33],0.049
same,glycan array binding signal (z-score),[34],0.241
same,glycan array binding signal (z-score),[35],-0.165
same,glycan array binding signal (z-score),[36],0.414
same,glycan array binding signal (z-score),[37],-0.326
same,glycan array binding signal (z-score),[38],-0.088

# From the supplement of paper PMC8728848
